These results are taken from patent US7794956.

Protein sequences, listed by entry. Tags and fused reporters are not part of them. Residues count along the entry.
UniProt P15208, residues 753-1372: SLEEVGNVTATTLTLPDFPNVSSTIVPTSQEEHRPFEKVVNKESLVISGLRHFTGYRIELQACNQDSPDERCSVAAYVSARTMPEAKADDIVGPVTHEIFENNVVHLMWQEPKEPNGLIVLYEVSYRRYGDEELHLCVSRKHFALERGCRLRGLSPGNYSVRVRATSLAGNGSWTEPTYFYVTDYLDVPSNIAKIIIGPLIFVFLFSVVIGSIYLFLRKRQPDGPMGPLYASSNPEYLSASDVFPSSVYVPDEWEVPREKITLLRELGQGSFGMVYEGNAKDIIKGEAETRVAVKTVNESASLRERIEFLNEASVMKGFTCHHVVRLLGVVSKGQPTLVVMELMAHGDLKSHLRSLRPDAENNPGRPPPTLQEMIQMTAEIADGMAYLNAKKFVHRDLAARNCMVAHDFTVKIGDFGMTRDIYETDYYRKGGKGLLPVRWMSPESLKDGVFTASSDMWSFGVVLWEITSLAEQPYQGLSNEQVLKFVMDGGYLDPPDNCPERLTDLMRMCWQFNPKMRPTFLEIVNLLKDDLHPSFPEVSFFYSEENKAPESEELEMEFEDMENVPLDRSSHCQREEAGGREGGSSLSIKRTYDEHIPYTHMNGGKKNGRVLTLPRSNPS
UniProt P35569: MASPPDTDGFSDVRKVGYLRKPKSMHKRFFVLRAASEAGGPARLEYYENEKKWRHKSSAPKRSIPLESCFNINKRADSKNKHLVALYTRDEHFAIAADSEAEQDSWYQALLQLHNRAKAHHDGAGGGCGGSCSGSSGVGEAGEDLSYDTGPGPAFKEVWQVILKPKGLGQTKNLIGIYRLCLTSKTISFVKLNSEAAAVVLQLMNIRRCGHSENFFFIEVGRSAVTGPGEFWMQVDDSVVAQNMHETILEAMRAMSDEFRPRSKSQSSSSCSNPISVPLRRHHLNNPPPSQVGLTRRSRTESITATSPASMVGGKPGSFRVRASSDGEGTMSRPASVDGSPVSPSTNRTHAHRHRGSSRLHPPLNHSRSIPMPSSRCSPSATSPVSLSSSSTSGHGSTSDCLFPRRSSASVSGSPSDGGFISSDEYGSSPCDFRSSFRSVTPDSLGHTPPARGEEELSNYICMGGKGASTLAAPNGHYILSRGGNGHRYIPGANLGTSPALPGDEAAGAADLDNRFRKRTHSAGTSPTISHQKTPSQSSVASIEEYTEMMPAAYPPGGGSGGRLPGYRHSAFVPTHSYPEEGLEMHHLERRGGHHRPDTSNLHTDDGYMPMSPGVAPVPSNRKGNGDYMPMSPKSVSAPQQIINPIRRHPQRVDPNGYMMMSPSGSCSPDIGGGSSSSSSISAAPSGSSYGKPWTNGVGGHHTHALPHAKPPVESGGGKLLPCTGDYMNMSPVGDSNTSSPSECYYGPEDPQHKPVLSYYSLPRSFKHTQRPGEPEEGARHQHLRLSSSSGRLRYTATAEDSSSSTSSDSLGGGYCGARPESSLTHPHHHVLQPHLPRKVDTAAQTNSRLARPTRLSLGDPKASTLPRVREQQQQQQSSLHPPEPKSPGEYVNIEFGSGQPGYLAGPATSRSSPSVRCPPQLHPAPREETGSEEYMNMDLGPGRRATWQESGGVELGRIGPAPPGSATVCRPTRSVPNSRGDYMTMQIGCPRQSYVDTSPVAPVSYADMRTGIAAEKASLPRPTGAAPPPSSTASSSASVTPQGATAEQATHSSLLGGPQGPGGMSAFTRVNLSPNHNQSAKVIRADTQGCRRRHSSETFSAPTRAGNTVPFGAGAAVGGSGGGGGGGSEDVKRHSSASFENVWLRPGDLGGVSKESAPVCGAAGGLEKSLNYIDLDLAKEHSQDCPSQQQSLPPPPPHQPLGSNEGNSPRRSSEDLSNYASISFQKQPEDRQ
UniProt P26450, residues 2-724: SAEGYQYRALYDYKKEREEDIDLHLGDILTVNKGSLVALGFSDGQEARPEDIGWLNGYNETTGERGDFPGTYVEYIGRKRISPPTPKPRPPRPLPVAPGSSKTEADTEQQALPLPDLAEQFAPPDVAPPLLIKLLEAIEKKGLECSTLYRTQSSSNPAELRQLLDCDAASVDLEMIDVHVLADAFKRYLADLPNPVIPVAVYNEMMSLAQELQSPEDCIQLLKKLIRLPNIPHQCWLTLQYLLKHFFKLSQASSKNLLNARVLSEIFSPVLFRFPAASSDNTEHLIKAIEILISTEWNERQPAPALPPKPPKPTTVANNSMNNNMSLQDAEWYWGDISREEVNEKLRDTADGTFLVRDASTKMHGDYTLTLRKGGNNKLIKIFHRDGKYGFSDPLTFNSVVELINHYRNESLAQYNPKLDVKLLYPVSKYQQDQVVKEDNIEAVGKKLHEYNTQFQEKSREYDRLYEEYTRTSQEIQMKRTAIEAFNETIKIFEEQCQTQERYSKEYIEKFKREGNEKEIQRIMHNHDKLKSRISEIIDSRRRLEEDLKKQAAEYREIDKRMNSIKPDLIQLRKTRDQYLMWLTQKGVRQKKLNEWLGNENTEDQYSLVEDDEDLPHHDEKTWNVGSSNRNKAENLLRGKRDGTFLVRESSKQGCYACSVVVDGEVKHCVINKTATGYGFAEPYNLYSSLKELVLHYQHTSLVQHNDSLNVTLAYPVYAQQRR

The target in assay [1] is beta subunit of insulin receptor (IRβ) (mouse) (UniProt P15208). Briefly: co-immunoprecipitation from liver lysates of control and LGKO mice (FIG. 4d).
Assay [2] concerns the target T1, IRS-2 (mouse) (UniProt P81122).
T1 sequence (looked up): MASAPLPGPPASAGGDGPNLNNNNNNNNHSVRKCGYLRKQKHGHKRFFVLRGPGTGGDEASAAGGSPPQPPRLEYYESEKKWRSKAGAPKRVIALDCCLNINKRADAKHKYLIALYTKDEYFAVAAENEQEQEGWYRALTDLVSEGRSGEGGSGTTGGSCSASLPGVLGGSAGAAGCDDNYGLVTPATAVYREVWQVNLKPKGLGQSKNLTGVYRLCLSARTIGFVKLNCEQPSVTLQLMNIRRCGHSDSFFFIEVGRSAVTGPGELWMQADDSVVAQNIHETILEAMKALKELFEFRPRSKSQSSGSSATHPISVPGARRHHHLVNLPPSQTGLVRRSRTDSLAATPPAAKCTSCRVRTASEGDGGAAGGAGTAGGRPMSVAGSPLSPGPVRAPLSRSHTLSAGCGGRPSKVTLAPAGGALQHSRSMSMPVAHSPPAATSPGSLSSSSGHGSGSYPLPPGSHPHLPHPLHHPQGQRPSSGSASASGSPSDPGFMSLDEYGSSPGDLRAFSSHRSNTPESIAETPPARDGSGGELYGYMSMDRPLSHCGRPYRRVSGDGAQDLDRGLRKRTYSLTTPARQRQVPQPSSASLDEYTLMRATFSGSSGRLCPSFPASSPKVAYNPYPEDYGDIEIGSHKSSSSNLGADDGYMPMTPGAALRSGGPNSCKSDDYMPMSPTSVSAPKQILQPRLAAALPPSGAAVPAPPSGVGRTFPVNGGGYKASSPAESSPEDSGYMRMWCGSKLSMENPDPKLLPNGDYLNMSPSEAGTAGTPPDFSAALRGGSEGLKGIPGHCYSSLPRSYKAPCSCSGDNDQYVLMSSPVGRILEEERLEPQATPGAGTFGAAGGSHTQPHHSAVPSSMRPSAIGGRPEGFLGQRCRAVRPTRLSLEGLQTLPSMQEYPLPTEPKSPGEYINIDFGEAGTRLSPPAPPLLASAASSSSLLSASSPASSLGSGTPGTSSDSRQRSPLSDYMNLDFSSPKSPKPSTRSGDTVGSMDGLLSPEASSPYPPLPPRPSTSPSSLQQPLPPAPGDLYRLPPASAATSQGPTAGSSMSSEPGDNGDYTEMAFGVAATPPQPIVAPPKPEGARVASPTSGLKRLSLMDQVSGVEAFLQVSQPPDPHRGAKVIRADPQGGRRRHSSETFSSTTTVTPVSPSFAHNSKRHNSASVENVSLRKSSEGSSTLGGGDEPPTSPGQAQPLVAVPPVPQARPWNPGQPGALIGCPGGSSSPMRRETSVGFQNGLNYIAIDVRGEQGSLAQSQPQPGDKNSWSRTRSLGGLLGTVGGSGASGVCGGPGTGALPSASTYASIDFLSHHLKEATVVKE
Briefly: co-immunoprecipitation from mouse liver lysates, blots quantified.

Assay [3] concerns the target IRS-1 (mouse) (UniProt P35569). The description is as above.
The target in assay [4] is T1, IRS-2 (mouse). Nature of the assay: co-immunoprecipitation: IRS-2 immunoprecipitated from mouse liver lysates, immunoblot for p85α. (In western blotting, separated proteins are transferred to a membrane and probed.)
Assay [5] has as its target IRS-1 (mouse) (UniProt P35569). Nature of the assay: co-immunoprecipitation: IRS-1 immunoprecipitated from mouse liver lysates, immunoblot for p85α.

Results are given in words; binding and its absence hold for the method and conditions named. In cells and extracts the contact can be indirect. Some entries that bind do so weakly or less than the wild type.

For the molecule IRS-1 (from UniProt P35569 1-1233), the binding result in assay [1] is given as “binds”.
Take “p85.alpha. subunit of PI3-kinase (from UniProt P26450 2-724)”: the binding result in assay [2], in assay [3], in assay [4] and in assay [5] was “binds” in each case.

B1: IRS-2 (protein, mouse, UniProt P81122 1-1321, looked up)
chain: MASAPLPGPPASAGGDGPNLNNNNNNNNHSVRKCGYLRKQKHGHKRFFVLRGPGTGGDEASAAGGSPPQPPRLEYYESEKKWRSKAGAPKRVIALDCCLNINKRADAKHKYLIALYTKDEYFAVAAENEQEQEGWYRALTDLVSEGRSGEGGSGTTGGSCSASLPGVLGGSAGAAGCDDNYGLVTPATAVYREVWQVNLKPKGLGQSKNLTGVYRLCLSARTIGFVKLNCEQPSVTLQLMNIRRCGHSDSFFFIEVGRSAVTGPGELWMQADDSVVAQNIHETILEAMKALKELFEFRPRSKSQSSGSSATHPISVPGARRHHHLVNLPPSQTGLVRRSRTDSLAATPPAAKCTSCRVRTASEGDGGAAGGAGTAGGRPMSVAGSPLSPGPVRAPLSRSHTLSAGCGGRPSKVTLAPAGGALQHSRSMSMPVAHSPPAATSPGSLSSSSGHGSGSYPLPPGSHPHLPHPLHHPQGQRPSSGSASASGSPSDPGFMSLDEYGSSPGDLRAFSSHRSNTPESIAETPPARDGSGGELYGYMSMDRPLSHCGRPYRRVSGDGAQDLDRGLRKRTYSLTTPARQRQVPQPSSASLDEYTLMRATFSGSSGRLCPSFPASSPKVAYNPYPEDYGDIEIGSHKSSSSNLGADDGYMPMTPGAALRSGGPNSCKSDDYMPMSPTSVSAPKQILQPRLAAALPPSGAAVPAPPSGVGRTFPVNGGGYKASSPAESSPEDSGYMRMWCGSKLSMENPDPKLLPNGDYLNMSPSEAGTAGTPPDFSAALRGGSEGLKGIPGHCYSSLPRSYKAPCSCSGDNDQYVLMSSPVGRILEEERLEPQATPGAGTFGAAGGSHTQPHHSAVPSSMRPSAIGGRPEGFLGQRCRAVRPTRLSLEGLQTLPSMQEYPLPTEPKSPGEYINIDFGEAGTRLSPPAPPLLASAASSSSLLSASSPASSLGSGTPGTSSDSRQRSPLSDYMNLDFSSPKSPKPSTRSGDTVGSMDGLLSPEASSPYPPLPPRPSTSPSSLQQPLPPAPGDLYRLPPASAATSQGPTAGSSMSSEPGDNGDYTEMAFGVAATPPQPIVAPPKPEGARVASPTSGLKRLSLMDQVSGVEAFLQVSQPPDPHRGAKVIRADPQGGRRRHSSETFSSTTTVTPVSPSFAHNSKRHNSASVENVSLRKSSEGSSTLGGGDEPPTSPGQAQPLVAVPPVPQARPWNPGQPGALIGCPGGSSSPMRRETSVGFQNGLNYIAIDVRGEQGSLAQSQPQPGDKNSWSRTRSLGGLLGTVGGSGASGVCGGPGTGALPSASTYASIDFLSHHLKEATVVKE
With B1, in assay [1], the binding result is “binds”.
